Drawing on paper PMC4489036, this text covers binding for two substances.

Protein sequences, listed by entry. Tags and fused reporters are not part of them. Lines headed by an entry give the natural chain unless they say otherwise; changes in a name come on top. Chains listed by the source or under a name are the forms on record and can include a tag or linker.
UniProt Q9N1U3: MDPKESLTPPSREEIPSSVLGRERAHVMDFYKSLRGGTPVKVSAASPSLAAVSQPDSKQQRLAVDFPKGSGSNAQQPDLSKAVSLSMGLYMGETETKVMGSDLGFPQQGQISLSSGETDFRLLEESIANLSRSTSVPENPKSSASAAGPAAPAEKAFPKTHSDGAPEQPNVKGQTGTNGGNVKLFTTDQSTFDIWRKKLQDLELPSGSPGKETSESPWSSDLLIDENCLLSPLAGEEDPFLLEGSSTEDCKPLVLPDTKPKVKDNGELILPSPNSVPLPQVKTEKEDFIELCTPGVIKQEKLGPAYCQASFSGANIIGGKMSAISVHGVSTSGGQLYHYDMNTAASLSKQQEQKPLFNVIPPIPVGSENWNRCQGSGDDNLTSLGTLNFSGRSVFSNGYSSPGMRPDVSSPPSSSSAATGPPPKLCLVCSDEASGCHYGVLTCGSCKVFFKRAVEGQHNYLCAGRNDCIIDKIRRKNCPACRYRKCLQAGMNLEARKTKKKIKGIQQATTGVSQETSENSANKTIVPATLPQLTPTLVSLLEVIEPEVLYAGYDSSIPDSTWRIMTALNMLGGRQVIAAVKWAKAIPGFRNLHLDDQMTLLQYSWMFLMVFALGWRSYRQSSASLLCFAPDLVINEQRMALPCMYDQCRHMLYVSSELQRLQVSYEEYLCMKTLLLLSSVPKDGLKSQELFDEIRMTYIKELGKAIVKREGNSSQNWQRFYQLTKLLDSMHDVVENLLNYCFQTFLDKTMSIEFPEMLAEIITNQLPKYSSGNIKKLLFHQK
UniProt Q9GKL7: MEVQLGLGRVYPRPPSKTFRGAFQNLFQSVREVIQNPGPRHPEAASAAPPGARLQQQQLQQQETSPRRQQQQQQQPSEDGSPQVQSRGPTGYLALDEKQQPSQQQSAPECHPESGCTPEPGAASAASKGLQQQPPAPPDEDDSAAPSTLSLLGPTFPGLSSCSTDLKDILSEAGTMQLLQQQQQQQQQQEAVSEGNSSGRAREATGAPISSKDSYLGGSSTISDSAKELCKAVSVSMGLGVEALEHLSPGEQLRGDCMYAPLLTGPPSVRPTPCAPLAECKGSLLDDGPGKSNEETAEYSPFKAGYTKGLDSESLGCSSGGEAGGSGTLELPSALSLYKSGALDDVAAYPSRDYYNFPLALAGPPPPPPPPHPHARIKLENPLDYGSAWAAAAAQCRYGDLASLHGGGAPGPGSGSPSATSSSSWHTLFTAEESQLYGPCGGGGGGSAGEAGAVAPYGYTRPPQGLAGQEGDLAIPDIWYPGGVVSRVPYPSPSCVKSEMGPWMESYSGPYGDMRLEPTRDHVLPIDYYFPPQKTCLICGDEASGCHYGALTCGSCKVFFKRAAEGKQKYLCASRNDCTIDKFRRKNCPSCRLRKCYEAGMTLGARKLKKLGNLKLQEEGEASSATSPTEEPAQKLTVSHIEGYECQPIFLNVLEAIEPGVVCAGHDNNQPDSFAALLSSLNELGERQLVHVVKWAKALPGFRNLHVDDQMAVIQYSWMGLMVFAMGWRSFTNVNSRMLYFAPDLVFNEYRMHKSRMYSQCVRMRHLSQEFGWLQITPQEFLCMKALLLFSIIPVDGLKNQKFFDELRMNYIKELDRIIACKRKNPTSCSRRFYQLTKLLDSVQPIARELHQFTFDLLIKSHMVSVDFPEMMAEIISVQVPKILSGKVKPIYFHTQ
androgen receptor (Q9GKL7, form named): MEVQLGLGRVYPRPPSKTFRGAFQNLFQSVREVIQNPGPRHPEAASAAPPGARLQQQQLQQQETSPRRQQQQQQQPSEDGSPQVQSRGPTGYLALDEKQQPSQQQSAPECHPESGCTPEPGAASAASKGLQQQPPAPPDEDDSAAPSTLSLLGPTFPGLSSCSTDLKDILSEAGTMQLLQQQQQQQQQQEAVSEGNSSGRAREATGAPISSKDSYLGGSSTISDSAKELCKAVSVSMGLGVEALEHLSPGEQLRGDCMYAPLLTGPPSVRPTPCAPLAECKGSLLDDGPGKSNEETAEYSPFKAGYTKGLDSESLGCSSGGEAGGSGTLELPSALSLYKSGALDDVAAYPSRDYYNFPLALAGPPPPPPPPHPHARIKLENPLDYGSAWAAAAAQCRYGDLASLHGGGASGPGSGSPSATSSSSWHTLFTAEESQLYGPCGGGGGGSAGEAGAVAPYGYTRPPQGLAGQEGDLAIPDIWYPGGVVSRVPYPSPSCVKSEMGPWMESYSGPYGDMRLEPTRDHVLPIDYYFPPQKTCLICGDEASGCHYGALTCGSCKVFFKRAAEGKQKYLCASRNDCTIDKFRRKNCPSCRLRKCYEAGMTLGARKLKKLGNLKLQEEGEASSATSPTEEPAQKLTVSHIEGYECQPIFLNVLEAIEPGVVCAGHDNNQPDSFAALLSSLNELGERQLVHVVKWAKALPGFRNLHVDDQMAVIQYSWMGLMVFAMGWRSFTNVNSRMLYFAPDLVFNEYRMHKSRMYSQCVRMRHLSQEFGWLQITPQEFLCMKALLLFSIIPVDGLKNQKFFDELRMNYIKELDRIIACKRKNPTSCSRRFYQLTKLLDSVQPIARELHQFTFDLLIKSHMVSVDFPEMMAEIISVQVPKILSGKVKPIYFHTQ

These are yes or no findings as the source states them, for the method shown. Binding seen in cells or lysates may run through a third protein.

Assay [1] deals with glucocorticoid receptor (pig (endogenous in piglet liver)) (UniProt Q9N1U3). Nature of the assay: co-IP; 500 ug total protein of piglet liver (pooled samples of 5 LW and of 6 EHL pigs), precleared with protein A/G plus beads; 4 ug C/EBPβ or GR antibody overnight at 4 °C; agarose beads 2 h at 4 °C; Western blot for GR or AR. (In general: Immunoblotting shows a protein as a band on a membrane.)

The target of assay [2] is T1, CCAAT/enhancer binding protein β (pig (endogenous in piglet liver)) (UniProt E5Q8C6).
T1 sequence: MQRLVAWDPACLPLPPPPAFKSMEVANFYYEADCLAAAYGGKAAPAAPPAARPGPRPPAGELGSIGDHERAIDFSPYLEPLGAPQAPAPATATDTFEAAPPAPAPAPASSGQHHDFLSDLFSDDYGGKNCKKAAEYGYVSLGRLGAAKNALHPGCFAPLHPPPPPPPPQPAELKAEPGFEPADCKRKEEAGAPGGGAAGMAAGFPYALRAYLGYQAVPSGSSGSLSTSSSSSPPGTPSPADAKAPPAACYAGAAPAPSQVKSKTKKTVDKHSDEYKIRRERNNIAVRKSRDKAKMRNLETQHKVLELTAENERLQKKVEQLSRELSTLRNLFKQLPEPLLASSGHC
Described as above.

On to “androgen receptor (from UniProt Q9GKL7 1-896)”, for which the binding entry in assay [1] is “no binding”.
As to “glucocorticoid receptor (from UniProt Q9N1U3 1-782)”, the binding result in assay [2] is “no binding”.
